For one substance, binding results are on record in paper PMC12304134.

The chains behind the UniProt entries cited, without tags or fusion partners. Residues count along the entry.
UniProt P07954, residues 45-510: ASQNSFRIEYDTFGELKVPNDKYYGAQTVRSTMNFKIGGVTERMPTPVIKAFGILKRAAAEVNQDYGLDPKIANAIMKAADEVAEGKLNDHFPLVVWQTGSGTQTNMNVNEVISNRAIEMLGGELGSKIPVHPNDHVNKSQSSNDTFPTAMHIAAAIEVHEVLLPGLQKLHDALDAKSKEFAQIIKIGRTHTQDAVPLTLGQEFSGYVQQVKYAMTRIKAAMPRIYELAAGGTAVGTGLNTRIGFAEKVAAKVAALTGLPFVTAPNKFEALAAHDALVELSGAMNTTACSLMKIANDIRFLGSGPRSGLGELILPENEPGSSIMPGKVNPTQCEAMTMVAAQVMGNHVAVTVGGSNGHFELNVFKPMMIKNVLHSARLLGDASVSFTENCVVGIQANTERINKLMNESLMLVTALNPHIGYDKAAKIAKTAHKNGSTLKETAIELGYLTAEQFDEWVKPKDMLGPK
UniProt Q9UBN7: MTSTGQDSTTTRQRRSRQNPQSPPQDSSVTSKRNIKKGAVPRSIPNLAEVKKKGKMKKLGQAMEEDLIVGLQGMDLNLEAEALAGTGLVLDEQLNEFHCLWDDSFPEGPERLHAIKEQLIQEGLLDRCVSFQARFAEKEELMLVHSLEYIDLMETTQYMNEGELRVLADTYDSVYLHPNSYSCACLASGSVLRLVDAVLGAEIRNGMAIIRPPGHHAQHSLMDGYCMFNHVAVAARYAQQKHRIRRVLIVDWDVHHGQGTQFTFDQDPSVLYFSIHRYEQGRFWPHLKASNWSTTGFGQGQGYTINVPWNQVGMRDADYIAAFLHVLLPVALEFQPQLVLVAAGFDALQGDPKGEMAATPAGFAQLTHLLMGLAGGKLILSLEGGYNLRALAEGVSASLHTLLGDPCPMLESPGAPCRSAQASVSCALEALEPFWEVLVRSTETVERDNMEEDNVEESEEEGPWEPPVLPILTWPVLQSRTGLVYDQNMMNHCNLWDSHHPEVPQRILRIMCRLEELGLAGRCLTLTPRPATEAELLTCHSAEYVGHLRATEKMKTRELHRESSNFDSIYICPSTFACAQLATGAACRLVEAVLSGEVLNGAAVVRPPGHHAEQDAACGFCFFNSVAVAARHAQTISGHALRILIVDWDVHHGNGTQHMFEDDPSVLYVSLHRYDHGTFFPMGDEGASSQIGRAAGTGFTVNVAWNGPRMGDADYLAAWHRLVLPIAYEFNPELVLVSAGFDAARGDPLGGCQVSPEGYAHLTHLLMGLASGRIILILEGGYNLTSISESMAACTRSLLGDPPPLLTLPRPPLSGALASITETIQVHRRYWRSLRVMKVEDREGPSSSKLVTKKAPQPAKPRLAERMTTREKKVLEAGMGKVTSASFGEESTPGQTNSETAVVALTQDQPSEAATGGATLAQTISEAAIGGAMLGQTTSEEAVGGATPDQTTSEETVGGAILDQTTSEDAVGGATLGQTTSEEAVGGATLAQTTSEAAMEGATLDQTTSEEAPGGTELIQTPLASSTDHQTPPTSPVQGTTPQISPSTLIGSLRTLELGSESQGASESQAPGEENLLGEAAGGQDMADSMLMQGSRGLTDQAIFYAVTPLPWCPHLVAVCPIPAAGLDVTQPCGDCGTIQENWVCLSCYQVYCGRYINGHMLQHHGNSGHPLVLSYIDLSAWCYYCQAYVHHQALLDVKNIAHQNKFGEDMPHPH

These are yes or no findings as the source states them, for the method shown. In cells and extracts the contact can be indirect. Some results given as binding are weak or reduced against the parent protein; the word gives no strength.

Test [1] deals with fumarate hydratase (FH) (human (endogenous in MDA-MB-231 and BT-549)) (UniProt P07954). Description: co-IP; immunoprecipitation of FH from nuclear extracts (NE-PER kit).
The target is the same in test [2]. Description: co-IP; whole-cell lysates (MDA-MB-231, BT-549) in CHAPS buffer (0.5% CHAPS, 150 mM NaCl, 2 mM EDTA, 15 mM Tris-HCl pH 8, 50 mM DTT); 600 µg protein, FH antibody or IgG mouse control (5 µg) overnight at 4 °C, protein A agarose; Western blot.
Test [3] has the same target. Description: co-IP; immunoprecipitation of FH from cytosolic fractions, with or without BAS-2 treatment.
The target is the same in test [4]. Description: co-IP; immunoprecipitation of FH from mitochondrial fractions.

“histone deacetylase 6 (HDAC6) (from UniProt Q9UBN7 1-1215)”: the binding entry in test [1] is recorded as “binds”; in test [2] it was “binds”; in test [3] it was “binds weakly”; in test [4], “binds”.
